From article PMC5836524
Numbering of substitutions follows the chain as printed. No constants are given. Whether binding was seen depends on the method and setting. In cells and extracts the contact can be indirect. Some binding calls cover weakened binding; strength is not graded here. Tags and fused reporters may be left off the sequences shown.

By UniProt entry, the sequences of proteins in these tests, tags left out.
UniProt Q00610: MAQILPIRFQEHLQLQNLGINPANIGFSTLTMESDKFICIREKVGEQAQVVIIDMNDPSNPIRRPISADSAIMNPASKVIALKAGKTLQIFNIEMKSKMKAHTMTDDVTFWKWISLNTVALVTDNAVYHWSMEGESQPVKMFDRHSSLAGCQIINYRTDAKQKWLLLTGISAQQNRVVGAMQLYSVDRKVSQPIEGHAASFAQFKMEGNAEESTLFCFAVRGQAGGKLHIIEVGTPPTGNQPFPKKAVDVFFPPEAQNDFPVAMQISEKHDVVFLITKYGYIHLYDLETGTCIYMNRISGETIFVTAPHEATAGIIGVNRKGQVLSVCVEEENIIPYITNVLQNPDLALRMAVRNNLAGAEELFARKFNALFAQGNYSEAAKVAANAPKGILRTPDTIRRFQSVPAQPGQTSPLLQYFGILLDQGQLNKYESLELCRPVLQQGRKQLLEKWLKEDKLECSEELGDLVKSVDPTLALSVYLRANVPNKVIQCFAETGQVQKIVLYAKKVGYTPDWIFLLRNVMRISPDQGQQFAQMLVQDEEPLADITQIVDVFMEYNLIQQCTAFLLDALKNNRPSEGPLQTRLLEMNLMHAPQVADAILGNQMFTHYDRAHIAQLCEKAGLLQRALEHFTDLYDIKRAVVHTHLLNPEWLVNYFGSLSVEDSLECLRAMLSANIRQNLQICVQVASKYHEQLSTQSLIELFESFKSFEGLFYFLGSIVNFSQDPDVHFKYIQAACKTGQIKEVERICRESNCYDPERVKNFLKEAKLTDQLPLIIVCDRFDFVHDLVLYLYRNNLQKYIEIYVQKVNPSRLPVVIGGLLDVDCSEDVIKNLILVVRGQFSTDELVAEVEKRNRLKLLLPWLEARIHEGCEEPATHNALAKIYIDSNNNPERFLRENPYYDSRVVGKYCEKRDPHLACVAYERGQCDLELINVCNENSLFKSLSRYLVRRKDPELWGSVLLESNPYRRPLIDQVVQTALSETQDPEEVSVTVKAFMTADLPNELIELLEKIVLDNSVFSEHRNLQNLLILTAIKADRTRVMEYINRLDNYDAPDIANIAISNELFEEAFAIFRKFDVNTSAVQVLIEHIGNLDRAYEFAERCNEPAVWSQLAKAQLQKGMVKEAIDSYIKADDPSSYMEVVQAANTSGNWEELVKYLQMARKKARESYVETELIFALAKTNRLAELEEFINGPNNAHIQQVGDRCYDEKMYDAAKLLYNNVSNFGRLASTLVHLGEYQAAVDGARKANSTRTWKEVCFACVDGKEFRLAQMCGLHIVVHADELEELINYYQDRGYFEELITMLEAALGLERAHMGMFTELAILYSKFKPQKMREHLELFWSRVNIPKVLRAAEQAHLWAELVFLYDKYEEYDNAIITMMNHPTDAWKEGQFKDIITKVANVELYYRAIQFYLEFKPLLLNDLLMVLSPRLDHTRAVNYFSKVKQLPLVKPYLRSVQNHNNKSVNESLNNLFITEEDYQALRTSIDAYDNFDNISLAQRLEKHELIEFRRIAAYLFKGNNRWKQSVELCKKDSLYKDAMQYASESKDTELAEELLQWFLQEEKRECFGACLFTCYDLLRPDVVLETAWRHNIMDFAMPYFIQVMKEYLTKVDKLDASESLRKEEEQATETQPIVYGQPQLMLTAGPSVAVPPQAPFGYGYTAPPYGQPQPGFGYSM

Experiments:
Experiment in all cases: pull-down; GST-tagged Eps15R or Eps15 motif domain constructs on beads incubated with detergent extracts from HeLa cells (100-200 μg lysate, 30-60 min, 4°C); immunoblot for clathrin and AP2 β-adaptin; only the target purified
[1] = biological target: T1, GST-Eps15R aa 699-709 (mouse) (UniProt Q60902)
T1 sequence: KLDPFESSDPF

[2] = biological target: T2, GST-Eps15R aa 699-729 F703A (mouse) (UniProt Q60902)
T2 sequence: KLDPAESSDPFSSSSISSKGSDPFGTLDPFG

[3] = biological target: T3, GST-Eps15R aa 699-729 F722A (mouse) (UniProt Q60902)
T3 sequence: T2 sequence with A5F, F24A

[4] = biological target: T4, GST-Eps15R aa 699-729 F728A (mouse) (UniProt Q60902)
T4 sequence: T2 sequence with A5F, F30A

[5] = biological target: T5, GST-Eps15R aa 701-747 (mouse) (UniProt Q60902)
T5 sequence: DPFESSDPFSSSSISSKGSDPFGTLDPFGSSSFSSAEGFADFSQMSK

[6] = biological target: T6, GST-Eps15R aa 717-729 (mouse) (UniProt Q60902)
T6 sequence: KGSDPFGTLDPFG

- binding [1]: no binding
- binding [2]: binds
- binding [3]: binds
- binding [4]: binds
- binding [5]: binds
- binding [6]: binds
Substance: clathrin (endogenous, detected by blot for clathrin heavy chain) (from UniProt Q00610 1-1675)
